Our source for the binding values is patent US20180021430A1 (UNIVERSITAETSKLINIKUM FREIBURG, published 2018).

Amino acid sequences for entries named in this document (tags omitted). Residues count along the entry.
UniProt P29965, residues 108-261: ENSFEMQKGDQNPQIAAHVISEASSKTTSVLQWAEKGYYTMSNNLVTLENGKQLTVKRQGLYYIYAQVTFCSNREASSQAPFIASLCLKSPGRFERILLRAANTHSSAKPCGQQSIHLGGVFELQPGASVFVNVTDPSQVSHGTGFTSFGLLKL

For this test, the target named is CD40L (soluble CD40L used for coating, biotinylation or binding to CD40-Fc; preparation not specified) (UniProt P29965). Nature of the test: solid phase binding assay, peptide immobilized, biotinylated CD40L in solution.

These are yes or no findings as the source states them, for the method shown. Some binding calls cover weakened binding; strength is not graded here.

B1: peptide M7 (EQLKKSKTL) (peptide)
peptide: EQLKKSKTL
notes: linear fragment of the Mac-1 I-domain, E162-L170
With B1, the binding entry is “binds”.
